This assay in a line: qHTS Assay for Modulators of Lamin A Splicing. Particulars: HeLa LMNA splicing GFP/RFP minigene ratio, 48 h. In outline:
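Read-out is the ratio of GFP to DsRed2 object intensity, acquired by 488 nm laser-scanning cytometry on HeLa lamin A-EGFP minigene reporter cells. Compound incubation 48 hrs at 37 °C in Opti-MEM with 2% FBS; DMSO 0.5% final.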

[1] abbreviates: measured here: RFP viability control channel.
[2] abbreviates: measured here: GFP splicing reporter channel.

Values joined by “and” are separate entries in the source; they are usually repeats but may differ in a detail not shown here. Identical values can stand only once. The list shows a part of the results. Further columns of the screen follow, without active or inactive calls. Most of these compounds were active or inconclusive in the main read-out, so they are no random draw. The note in brackets gives the kind of curve behind each potency; many fits are weak.

Regarding `O=C(N/C=N/OCc1cccc(C(F)(F)F)c1)N1OC[C@@H]2COc3ccc4ccccc4c3[C@@H]21`, under setting [1], the half-maximal activity concentration (AC50) is 14.1 µM [rising, single point].
Turning to `Cc1cccc(C)c1NC(=O)C(C)c1ccc(-c2ccccc2)c(F)c1` (stereo not given), the half-maximal activity concentration (AC50) was 11.2 µM [rising, single point] under setting [2] and 25.1 µM [rising, single point] under setting [1].
With `COc1cc2c(=O)n(CCCN3CCOCC3)c(=S)[nH]c2c(OC)c1OC`, under setting [1], the AC50 was 35.5 µM [rising, partial curve, poor fit].
On the same count and under the same terms, for `Cc1c(C(=O)Nc2ccc(Cl)cc2)c2ccccn2c1CCc1ccncc1` the value was 15.8 µM [rising, single point].
As for `Cc1c(C(=O)OCC2CCCO2)[nH]c2c1C(=O)CC(c1ccco1)C2` (stereo not given), the half-maximal activity concentration (AC50) is 7.94 µM [falling, partial curve] under setting [2] and 7.94 µM [falling, partial curve] under setting [1].
In the case of `Cc1c(NC(=O)c2cc(-c3cccs3)on2)c(=O)n(-c2ccccc2)n1C`, the half-maximal activity concentration (AC50) under setting [2] was 14.1 µM [rising, single point].
`Cc1ccc2[nH]c(-c3ccccc3)cc(=O)c2c1`: the AC50 is 3.98 µM [rising, full curve] under setting [2] and 3.16 µM [rising, full curve] under setting [1].
On to `CCOCCCNC(=O)Cn1cnc2sc(C)c(S(=O)(=O)N3CCN(c4ncccn4)CC3)c2c1=O`, for which, under setting [2], the concentration at half-maximal activity (AC50) is 1.26 µM [rising, single point].
`CCCCOC(=O)c1ccc(O)cc1`: the half-maximal activity concentration (AC50) reads like this: under setting [2], 11.2 µM [falling, single point] and 89.1 nM [falling, full curve, poor fit]; under setting [1], 5.62 µM [rising, single point] and 35.5 µM [falling, partial curve, poor fit].
On to `COC(=O)c1c(C)oc2ccc(N(C(=O)c3ccncc3)S(=O)(=O)c3ccc4ccccc4c3)cc12`, for which, under setting [1], the concentration at half-maximal activity (AC50) is 5.62 µM [rising, single point].
`CNCCCCOc1ccccc1Cc1ccccc1`: the half-maximal activity concentration (AC50) is, setting by setting: under setting [2], 0.00398 µM [falling, full curve, poor fit]; under setting [1], 0.00355 µM [falling, full curve, poor fit].
For `CCn1c(SCc2ccc(F)cc2Cl)nc(=O)c2c(C(=O)OC)cc(C3CC3)nc21`, under setting [1], the concentration at half-maximal activity (AC50) was 35.5 µM [falling, single point].
With `O=C(O)Cc1ccc(O)c(O)c1`, the AC50 is 6.31 µM [falling, partial curve, poor fit] under setting [2] and 3.55 µM [falling, single point] under setting [1].
With `CCOC(=O)C(=CNc1ccc2c(c1)nnn2-c1ccc(Cl)cc1)C(=O)OCC`, the concentration at half-maximal activity (AC50) under setting [2] is 12.6 µM [rising, partial curve, poor fit].
Take `COc1ccccc1CNc1nc2ccccc2n1CCN1CCCCC1`: the half-maximal activity concentration (AC50) by setting is: under setting [2], 14.1 µM [rising, single point]; under setting [1], 35.5 µM [rising, single point].
On to `COc1ccc(N2CCn3c2nc2c3c(=O)n(CCCc3ccccc3)c(=O)n2C)c(OC)c1`, for which the AC50 under setting [2] was 2.24 µM [rising, full curve] and the half-maximal activity concentration (AC50) under setting [1] was 3.98 µM [rising, partial curve].
As to `Cc1ccc(-c2cn3c(n2)sc2cc(C(=O)NCc4cccs4)ccc23)c(C)c1`, the concentration at half-maximal activity (AC50) under setting [2] was 8.91 µM [rising, partial curve].
In the case of `CCC(O)c1ccccc1` (stereo not given), the AC50 runs as follows: under setting [2], 20 µM [falling, partial curve, poor fit]; under setting [1], 0.398 µM [falling, full curve, poor fit].
Regarding `COc1ccc(Cn2ccc3nc(C)c(C(=O)N4CCN(c5ccccc5OC)CC4)cc3c2=O)cc1`, the half-maximal activity concentration (AC50) by setting is: under setting [2], 0.0631 µM [falling, full curve]; under setting [1], 0.0708 µM [falling, full curve].
As for `COc1ccc(-c2cc(C)nc3c(-c4ccccc4)cnn23)cc1`, under setting [2], the AC50 is 0.447 µM [rising, full curve, poor fit].
For the molecule `COc1cc2c(cc1NC(=O)Nc1ccc(F)cc1)oc1ccccc12`, the AC50 under setting [1] is 6.31 µM [rising, partial curve].
On to `COC(=O)C1CCN(c2cc(Cl)nc(N)n2)CC1`, for which, under setting [1], the AC50 was 5.01 µM [falling, partial curve].
Consider `Cc1c(C(=O)N2CCCC2)sc(NC(=O)c2cccc(Cl)c2)c1C#N`, for which the concentration at half-maximal activity (AC50) under setting [1] was 31.6 µM [rising, single point].
Take `CC(=O)c1cccc(NC(=O)N2C3CCC2CC(NC(=O)C2CC2)C3)c1` (stereo not given): the concentration at half-maximal activity (AC50) under setting [2] is 0.141 µM [rising, full curve].
For the molecule `CCCc1nc2c(C)cc(-c3nc4ccccc4n3C)cc2n1Cc1ccc(-c2ccccc2C(=O)O)cc1`, under setting [1], the AC50 was 0.000794 µM [rising, full curve, poor fit].
For `CC(C)c1ccc(OCc2nc(-c3ccccn3)no2)c(Br)c1`, the AC50 reads like this: under setting [2], 7.94 µM [rising, partial curve]; under setting [1], 15.8 µM [rising, single point].
As for `COc1ccc(Cl)cc1NC(=O)CSc1nc(=O)[nH]c2c1CCCC2`, under setting [1], the concentration at half-maximal activity (AC50) was 0.00501 µM [falling, full curve].
The same measure, in the same setting: the result for `COc1ccc(S(=O)(=O)N2CCCC2)c(Cl)c1Cl` reads 0.398 µM [falling, partial curve]; that for `Cc1nc2ccccc2c2oc(C(=O)N3CCC(N4CCCCC4)CC3)cc12`, 10 µM [rising, partial curve].
Regarding `O=C(NCc1ccc2c(c1)OCO2)c1ccc(Cl)c(S(=O)(=O)NCc2ccccc2)c1`, the AC50 under setting [2] is 3.55 µM [rising, single point] and the half-maximal activity concentration (AC50) under setting [1] is 15.8 µM [rising, single point].
For the molecule `Cc1ccc(C)c2[nH]c(=O)c(CCNC(=O)Cc3cccs3)cc12`, the AC50 under setting [1] is 7.08 µM [falling, full curve, poor fit].
As for `CCOC(=O)C(=CNc1ccc(NC2=NCC(C)S2)cc1)C(=O)OCC` (stereo not given), the half-maximal activity concentration (AC50) by setting is: under setting [2], 7.94 µM [rising, partial curve]; under setting [1], 14.1 µM [rising, partial curve, poor fit].
As to `CN(C)c1ccc(-c2ccc3ncnc(N(C)Cc4ccco4)c3c2)cc1`, the half-maximal activity concentration (AC50) is 3.98 µM [falling, full curve] under setting [2] and 4.47 µM [falling, full curve] under setting [1].
For `COc1cc(Cl)c(NC(=O)CN(C)S(=O)(=O)c2ccc3c(c2)CCCC(=O)N3)c(OC)c1`, under setting [1], the AC50 is 35.5 µM [rising, partial curve, poor fit].
The same measure, in the same setting: for `CN(C)CCOc1ccccc1Cc1ccccc1` the value was 0.02 µM [falling, full curve, poor fit].
Turning to `Clc1ccc(CNc2ccc(CNc3ncn[nH]3)cc2)cc1`, the AC50 under setting [2] was 14.1 µM [rising, partial curve] and the concentration at half-maximal activity (AC50) under setting [1] is 35.5 µM [rising, single point].
In the case of `COc1ccc(NC(=O)c2cc(C)nc3c2c(C)nn3-c2cccc(Cl)c2C)c(OC)c1`, the AC50 was 5.01 µM [falling, single point] under setting [2] and 0.251 µM [falling, partial curve, poor fit] under setting [1].
With `Cc1[nH]n(-c2ccccc2)c(=O)c1/C=N/NC(=O)COc1ccccc1[N+](=O)[O-]`, the AC50 under setting [1] is 25.1 µM [rising, single point].
On to `Cc1nn(C)c(C)c1S(=O)(=O)N1CCCC(C(=O)NC2CCCCCC2)C1` (stereo not given), for which the AC50 by setting is: under setting [2], 14.1 µM [rising, single point]; under setting [1], 11.2 µM [rising, partial curve].
Consider `O=C1COc2cc(S(=O)(=O)CCC(=O)N3CCN(c4ccccc4)CC3)c(Cl)cc2N1`, for which the half-maximal activity concentration (AC50) is, setting by setting: under setting [2], 0.00316 µM [falling, full curve, poor fit]; under setting [1], 0.00316 µM [falling, full curve, poor fit].
`COc1ccc(/C=N\NC(=O)COc2ccc(Cl)cc2Cl)c(C(=O)O)c1OC`: under setting [1], the concentration at half-maximal activity (AC50) was 35.5 µM [rising, single point].
Consider `CCS(=O)(=O)c1cccc(C(=O)N2CCN(c3nc4c(C)ccc(Cl)c4s3)CC2)c1`, for which the concentration at half-maximal activity (AC50) by setting is: under setting [2], 0.00891 µM [falling, full curve]; under setting [1], 0.00447 µM [falling, full curve, poor fit].
Consider `COC(=O)/C=C/C(=O)Nc1cccc(C(F)(F)F)c1`, for which the AC50 by setting is: under setting [2], 3.98 µM [rising, single point]; under setting [1], 3.16 µM [rising, single point].
On to `COc1ccc(NS(=O)(=O)c2ccc(NC(=S)NC(=O)C(C)C)cc2)cc1`, for which the AC50 under setting [2] is 11.2 µM [rising, partial curve, poor fit].
For `N#Cc1ccc(CSc2ncnc3c2cnn3Cc2ccccc2)cc1`, the AC50 under setting [1] is 15.8 µM [rising, single point].
The same measure, in the same setting: for `COC(=O)c1ccc(CSc2nc3c([nH]c4ccccc43)c(=O)n2-c2cc(C)cc(C)c2)o1` the value was 11.2 µM [falling, partial curve, poor fit]; for `CCCCCCCCCc1nc2sc3c(c2c(=O)n1NC(=O)c1ccccc1[N+](=O)[O-])CC(C)(C)OC3`, 12.6 µM [rising, single point].
Turning to `Cc1cccc(-c2onc3ccc(C4(C)OCCO4)cc23)c1`, the AC50 reads like this: under setting [2], 14.1 µM [rising, single point]; under setting [1], 15.8 µM [rising, single point].
In the case of `CSc1cccc(NC(=O)C2CCCN(S(=O)(=O)c3ccc(F)cc3)C2)c1` (stereo not given), under setting [1], the AC50 is 12.6 µM [rising, partial curve, poor fit].
With `CCOC(=O)c1c(C)[nH]c(C(=O)COC(=O)c2ccncc2)c1C`, the AC50 is 22.4 µM [falling, partial curve, poor fit] under setting [2] and 1.26 µM [falling, partial curve, poor fit] under setting [1].
As for `CC(C)(C)C(=O)N1CCN(c2ccc(Cl)cc2[N+](=O)[O-])CC1`, under setting [1], the half-maximal activity concentration (AC50) is 12.6 µM [rising, partial curve, poor fit].
As for `CCC1CCCCN1C(=S)Nc1ccc(OC(F)F)cc1` (stereo not given), the concentration at half-maximal activity (AC50) reads like this: under setting [2], 10 µM [rising, single point]; under setting [1], 20 µM [rising, partial curve].
